Some of the results follow. The main result of the screen is listed elsewhere. These columns were measured beside it and carry no call. The list favours compounds with an active or inconclusive main result. The note in brackets gives the kind of curve behind each potency; many fits are weak.
Test: qHTS Assay for Lipid Storage Modulators in Drosophila S3 Cells;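 for cell number change: cells counted by Cell Tracker Red CMTPX staining in the red channel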
Conditions: BODIPY lipid droplet fluorescence, 18-24 h; for cell number change: measured here: cell count max response, cells fed with added oleic acid
Method in brief: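 Drosophila S3 cells got compounds at several concentrations plus oleic acid (400 uM solution). Laser-scanning cytometry with 488 nm excitation read lipid droplets at 500-530 nm and cells at 575-640 nm. Percent activity was relative to 20 uM Triacsin C.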

[1] = measured here: cell number channel AC50, cells fed with added oleic acid
[2] = measured here: lipid fluorescence (Fed channel) AC50, cells fed with added oleic acid

SMILES	cell number change [%]	AC50 [1]	AC50 [2]
COC(=O)CSc1nnc(-c2cccnc2)o1	-64.2	32.6 µM [falling, single point]	
Cc1ccc(N(C(=O)CNC(=O)c2ccco2)C(C(=O)NC2CCCC2)c2ccncc2)c(C)c1 (configuration not stated)	5.71		
O=C(CCC(=O)NC1CCCCC1)NCc1ccc(F)cc1	5.25		11.6 µM [rising, single point]
CC1Sc2ccc(S(=O)(=O)NCCc3ccc(S(N)(=O)=O)cc3)cc2NC1=O (configuration not stated)			0.58 µM [falling, full curve]
CC(C)CCCN1CCN=C1N(C)C	29.6		6.51 µM [rising, single point]
COCCNC(=O)C(=O)NCC1OCCCN1S(=O)(=O)c1cccs1 (configuration not stated)	-1.33		2.31 µM [falling, full curve, poor fit]
Cc1cc(C(=O)NNC(=O)c2cccs2)c(C)o1	13.2		0.184 µM [falling, full curve, poor fit]
O=C(CSc1nnc2scc(-c3ccccc3)n12)NCc1ccc2c(c1)OCO2	0.742		2.31 µM [rising, partial curve]
CC(=O)c1ccc(NC(=O)CCC(=O)OCC(=O)c2cccc([N+](=O)[O-])c2)cc1	15.5		
CC(C)CN1CCC(=O)N(CCO)CC1	0.599		
CCOc1cccc(C(=O)Nc2ccc(N3CCN(S(C)(=O)=O)CC3)cc2)c1	4.16	6.51 µM [rising, single point]	6.51 µM [rising, single point]
CCc1ccccc1Nc1nc(N)nc(CSCC(=O)Nc2ccc(C)c(C)c2)n1	2.8		4.61 µM [rising, single point]
CC(C)[C@H](NC(=O)OCc1ccccc1)C(=O)OCC(=O)N1CCN(c2ccccc2)CC1	-11.8		3.26 µM [rising, single point]
O=c1c2ccc(Cl)cc2[nH]c(=S)n1CCCN1CCOCC1	23		0.461 µM [rising, single point]
COC(=O)C1C(=O)C=C(N2CCOCC2)CC1(C)C (configuration not stated)	-0.195		0.461 µM [falling, single point]
COc1ccc(-c2oc3ccc(-c4cc(OC)c(OC)c(OC)c4)cc3c2C(=O)c2ccc(OC)nc2)cc1	16.5		29.1 µM [rising, single point]
CC(C)N=C(NS(=O)(=O)c1cccs1)c1ccccc1	3.14		3.66 µM [rising, partial curve]
CC(C)c1ccc(S(=O)(=O)Nc2ccc(-n3cnnn3)cc2)cc1	-30.6	2.59 µM [falling, full curve]	
COc1ccccc1NC(=O)COC(=O)c1cc(C)nc2ccccc12	23.9	0.0058 µM [rising, full curve, poor fit]	0.0058 µM [rising, full curve, poor fit]
O=C(COC(=O)/C=C/c1nc2ccccc2s1)Nc1cccc(Cl)c1Cl	-3.6	0.259 µM [falling, full curve, poor fit]	

SMILES	cell number change [%]	AC50 [1]	AC50 [2]
CCOC(=O)N1CCN(C(=O)CN(C2CCCCC2)S(=O)(=O)c2ccc(C)cc2)CC1			0.13 µM [falling, full curve, poor fit]
CCCc1cc(=O)[nH]c(Nc2ccc(O)cc2)n1	4.5		10.3 µM [falling, partial curve]
COc1ccccc1/C=N/N1C(=O)c2cccc3cccc(c23)C1=O	13		
O=c1[nH]c(C2CCN(S(=O)(=O)c3ccccc3)CC2)nc2c1nnn2Cc1ccc2c(c1)OCCO2	-23.4	2.31 µM [falling, partial curve]	
O=C(COC(=O)C12CC3CC(CC(O)(C3)C1)C2)Nc1ccc(Cl)cc1F	6.04		
Clc1ccc2nncn2n1	-32.3	0.103 µM [falling, full curve, poor fit]	0.116 µM [falling, full curve, poor fit]
CCOC(=O)CNC(=O)c1cn(CC)c(=O)c2cc(OC)c(OC)cc12	25.7		
O=C(COc1ccc(S(=O)(=O)N2CCOCC2)cc1)Nc1ccccc1Cl			29.1 µM [falling, single point]
COc1cccc(Cn2cccc(NC(=O)Nc3ccc(C#N)cc3)c2=O)c1	2.84	0.82 µM [falling, single point]	
Cc1cccc(NC(=O)CCCN2C(=O)C(c3ccccc3)Oc3cccnc32)c1C (configuration not stated)	14.6	6.51 µM [rising, single point]	6.51 µM [rising, single point]
COC(=O)C1=C(NC(=O)c2ccccc2C)CCS1	24.8		6.51 µM [rising, single point]
Cc1ccc(NC(=S)NC(NC(=O)Cc2cccc3ccccc23)C(Cl)(Cl)Cl)cc1 (configuration not stated)		0.82 µM [rising, full curve]	14.6 µM [falling, partial curve]
O=C(OCc1ccccc1)/C(=C/c1ccc(Cl)cc1)NC(=O)c1ccccc1Cl	-32.9		
Cc1cccn2c(=O)c3cc(S(=O)(=O)c4ccccc4)c(=N)n(Cc4cccnc4)c3nc12	-21.8		0.0651 µM [rising, partial curve, poor fit]
O=C(NCc1ccc2c(c1)OCO2)c1cc2c(s1)CS(=O)(=O)C2	-4.56		3.26 µM [rising, full curve, poor fit]
COC(=O)c1ccc(CNC(=O)CSc2nnc(COc3ccccc3)n2C)o1	-14.5		7.31 µM [falling, partial curve, poor fit]
CCN1C(=O)[C@H]2[C@@H](c3ccc(C)cc3)N3C(=O)N(c4ccc(OC)cc4)C(=O)[C@@]3(Cc3ccc(Cl)cc3)[C@H]2C1=O	-3.24		0.13 µM [falling, full curve, poor fit]
Cc1onc(-c2c(Cl)cccc2Cl)c1C(=O)c1c[nH]c(C(=O)NCC2CCCO2)c1 (configuration not stated)	71.8	14.6 µM [rising, single point]	
O=C(CSc1cn(Cc2ccccc2)c2ccccc12)NCc1ccc(F)cc1	-3.43		4.11 µM [falling, full curve]

Individual results from the results shown:
Entry for CCN1C(=O)[C@H]2[C@@H](c3ccc(C)cc3)N3C(=O)N(c4ccc(OC)cc4)C(=O)[C@@]3(Cc3ccc(Cl)cc3)[C@H]2C1=O under AC50 [2]: 0.13 µM [falling, full curve, poor fit]
Entry for CCOC(=O)CNC(=O)c1cn(CC)c(=O)c2cc(OC)c(OC)cc12 under cell number change [%]: 25.7

From PubChem BioAssay AID2685 (National Center for Advancing Translational Sciences (NCATS), 2010)
